## Library screening results

From ChEMBL document CHEMBL3988442, “University of Dundee, Small-Polar-MMV Screening Library” (2021).

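Viability assay of Plasmodium falciparum sporozoites; the read-out is not stated. The concentration is filed as 10 mM, unlikely as a test dose, so the dose is not known. Direction is inferred from retests: higher values go with lower viability. Strong results were mostly tested again. Of about 34,000 compounds tested this way, about 280 (0.84%) reached 50% or more in at least one test.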

Values are the deposited “Percent Effect”, in %. The record does not define 0% and 100%; most values in the screen are far below 50% and negative numbers occur (in some assays of this library far below -100). This is an unselected part of the compounds tested. Two or more numbers in one place are separate tests of the same structure; such repeats can differ widely.

CCc1nccn1C1CCCN(C(=O)COCC(F)(F)F)C1 (stereo not given) read -25.55% & 1.763% & -13.42%.
COCCNC(=O)CSCc1nc(O)c2cc(C(C)C)sc2n1 read 4.009% & -1.27%.
O=C(O)C(F)(F)F.[H][C@@]12COC[C@]1(COCC(=O)N(C)C)CN(Cc1nc(C)cs1)C2 read 0.08772%.
CN(C)c1cc(C(=O)N2CCCN(Cc3nccn3C)CC2)ccn1 read 1.416%.
O=C(O)C(F)(F)F.O=C(O)C(F)(F)F.[H][C@@]12CCN(Cc3nccs3)C[C@]1([H])O[C@@H](C(=O)Nc1cccnc1)C2 read 6.061%.
CC(C)CCCNC(=O)Nc1ccc(Cl)c(C(N)=O)c1 read -3.849%.
CCc1nc(C2CCCN(C(=O)c3ccccc3O)C2)no1 (stereo not given) read -17.39% & 1.312% & -15.59%.
[H][C@@]12C=C[C@@]([H])(C1)[C@H](C(=O)N1CCN(c3cc(C)nc(CC)n3)CC1)C2 read 8.012%.
Cc1cc(CNc2cc(Cl)ccc2C)no1 read 15.08%.
O=C(O)C(F)(F)F.[H][C@@]12C[C@H](C(=O)NC3CC3)CN(CC3CC3)[C@]1([H])CCO2 read 5.087%.
CC1(C(N)=O)CN(CC2CCC2)CCO1 (stereo not given) read 6.206%.
O=C(COc1cccc(Cl)c1)N1CCOCC1c1ncon1 (stereo not given) read 9.655% & 0.9891% & 13.26%.
CN(C)CCn1nc(C2CCN(S(=O)(=O)N(C)C)C2)c2cccnc21 (stereo not given) read 9.892%.
Cc1ccc(C(C)NC(=O)Nc2ccccc2CN2CCOCC2)o1 (stereo not given) read -17.76%.
Cc1cc(CN2CCc3nc(C(C)C)nc(O)c3CC2)c(C)s1 read -5.051%.
CCOCc1nc2c(c(NC(CC)c3ccncc3)n1)CCNCC2 (stereo not given) read -1.643%.
[H][C@@]12CCCCN(CC(N)=O)[C@]1([H])CN(C(=O)c1ccccc1OC)C2 read 8.589%.
[H][C@]12CC[C@]([H])(CN(C(=O)C3CCC3)C1)N(Cc1cnc(CC)nc1)C2 read -3.73%.
Cn1cc(-c2cnc(N3CCCC3)nc2)cc1C(=O)N1CCOCC1 read -15.52% & -24.92%.
CNCc1ccc([C@@H]2CN(C(C)=O)C[C@H]2C(=O)N(C)C)cc1.Cl read 0.9712%.
Cc1cnn(CC2CN(Cc3cccc(C(=O)N(C)C)c3)CCO2)c1 (stereo not given) read 12.43%.
COCCNC(=O)NCc1ccc(OC(C)C)c(F)c1 read 5.134%.
Cc1ccc(NCCCNc2nccc(-c3cn(C)nc3C)n2)nc1 read 7.166%.
CC(C)C(NC(=O)NCCNc1ccccn1)c1cccs1 (stereo not given) read 4.579%.
c1nc2n(n1)CC(NCc1csc(-c3ccsc3)n1)CC2 (stereo not given) read 8.857%.
Cc1ccc(OCCN2CCCC(c3cc(C(N)=O)[nH]n3)C2)cc1 (stereo not given) read -8.807%.
CC(C)(C)OC(=O)NC(C)(C)c1noc(CN2CCCCC2)n1 read 1.502%.
O=C(Cc1ccccc1)NCCNC(=O)c1scnc1Cl read 12.16%.
CC1CN(C)CCN1C(=O)COc1cccc(Oc2ccccn2)c1 (stereo not given) read -2.732% & -10.53% & 8.192%.
CC(CNC(=O)c1cccnc1O)Cn1cccn1 (stereo not given) read -2.081%.
CC(C(=O)NCc1ccnc(N(C)C)c1)n1cncn1 (stereo not given) read -12.82%.
CN1CCN(c2ncccn2)CC(C(=O)N(C)C)C1 (stereo not given) read 1.19%.
CSc1cccc(CN(C)C(=O)c2ccc(C3CCCNC3)cc2)c1 (stereo not given) read -8.154%.
COCCOc1cccc(C(=O)N2CCCC(n3ccnc3)C2)c1 (stereo not given) read 9.702%.
CC(C)(C)c1cc(NC(=O)C2CCCO2)n(-c2ccccn2)n1 (stereo not given) read -8.434%.
Cc1noc(NC(=O)CCNC(=O)c2ccc(Br)cc2)n1 read 0.8079%.
Cc1nc(CN2CCCn3c(nc(Cn4cncn4)cc3=O)C2)cs1.O=C(O)C(F)(F)F read -0.1238%.
CSc1ccc(C(=O)N2CCOCC2c2c(C)n[nH]c2C)o1 (stereo not given) read 15.53%.
CCOc1ccccc1C(=O)NC(CC(=O)O)c1cccs1 (stereo not given) read 5.114%.
CN(Cc1nnc2n1CCC2)C(=O)NCCc1ccc2c(c1)OCO2 read 4.48%.
Cc1ncsc1C(=O)N(C)Cc1cccc(Cl)c1 read 13.19%.
O=C(O)C(F)(F)F.[H][C@@]12CCN(Cc3ccccc3F)C[C@]1(C(=O)N1CCOCC1)CCO2 read -23.03%.
Cc1nc(C)n(C2CCCN(C(=O)CCCOc3ccccc3)C2)n1 (stereo not given) read -3.761%.
COc1cccc(S(=O)(=O)NC(=O)c2c(C)noc2C(C)C)c1 read -2.449%.
CC(=O)N1CCCN(C(C)C(=O)Nc2ccnn2C(C)C)CC1 (stereo not given) read -1.538%.
Cc1csc(N2CCCN(C(=O)CCN3CCCC3=O)CC2)n1 read -0.333%.
CC1(C(=O)NCCCOc2ccccc2F)CC(=O)N2C=CC=CC2=N1 (stereo not given) read 0.4439%.
CC(C)CCN1CN=C(NS(=O)(=O)c2ccc(F)cc2)NC1 read -0.6579%.
CC(C)CCc1nc(CNCC2CN(C)CCO2)cs1 (stereo not given) read 7.058%.
CNc1cccc(C2CCCN(C(=O)c3cccnc3)C2)n1 (stereo not given) read 7.195%.

Repeated from the top, 4 entries:

CCc1nccn1C1CCCN(C(=O)COCC(F)(F)F)C1 (stereo not given) gave -25.55% & 1.763% & -13.42%.
COCCNC(=O)CSCc1nc(O)c2cc(C(C)C)sc2n1 gave 4.009% & -1.27%.
O=C(O)C(F)(F)F.[H][C@@]12COC[C@]1(COCC(=O)N(C)C)CN(Cc1nc(C)cs1)C2 gave 0.08772%.
CN(C)c1cc(C(=O)N2CCCN(Cc3nccn3C)CC2)ccn1 gave 1.416%.